Measurements reported in PMC4703387, “Identification of the Calmodulin-Binding Domains of Fas Death Receptor” (PLoS ONE, 2016).

Test system: Ca^2+/CaM–FasDD complex
Test: Un-induced proteolysis: stability on storage at 4°C for one week

B1: FasDD: intracellular death domain of Fas (protein)
chain: SKYITTIAGVMTLSQVKGFVRKNGVNEAKIDEIKNDNVQDTAEQKVQLLRNWHQLHGKKEAYDTLIKDLKKANLCTLAEKIQTII
stability on storage, unbound control: stable and not prone to degradation
stability on storage, in 2:1 Ca^2+/CaM–FasDD complex (no protease added, SDS-PAGE (minor subtilisin contamination)): degraded and gave rise to stable and proteolysis resistant ~5 kDa FasDD fragment(s)
